Assay results from US7572818B2, “2-pyridylethylbenzamide derivative” (Bayer Cropscience S.A., priority 2002, dated 2009).
Some entries share one result that the patent states for a list of compounds. Some ranges recur; such a range may be that of the whole group of compounds.

The compounds below were run on Septoria tritici (assay: In vivo test of activity on Septoria tritici (wheat septoria disease)). Details: 250 g/ha, preventive spray 24 h before inoculation.
Description: In Vivo Test of Activity on Septoria tritici (Wheat Septoria Disease
An aqueous solution of the active material to be tested is prepared at a concentration of 2 g/l by grinding in solution 1 or solution 2:
• Water • Tween 80 diluted to 10% in water: 5 μl/mg of active material • Clay in a sufficient amount for active material+clay to equal 100 mg; Solution 2
Concentrated solution containing surfactants and adjuvants conventionally used: 200 μl/mg of active material.
The aqueous solution is diluted with water so as to obtain the desired concentration.
Wheat plants of the Scipion variety are sown in a 50/50 pozzolan/peat substrate and maintained at 12° C. The treatment is carried out at the 1-leaf stage (10 cm) by spraying the aqueous suspension. The untreated control plants are sprayed with water.
24 hours after treatment, the plants are inoculated by spraying a solution of Septoria tritici spores (500 000 spores/ml) from a 7-day culture.
The wheat plantlets are then maintained at 18-20° C. in a humid atmosphere for 72 hours, and then at 90% relative humidity. The effectiveness of the products is evaluated relative to the control plants, 21 to 28 days after the contamination.
The effectiveness of the molecules is estimated, at 500 g/ha, 250 g/ha or 330 ppm, by the percentage of control relative to untreated plants. Under these conditions, good effectiveness is defined as more than 80% effectiveness. Average effectiveness is defined as an effectiveness between 50 and 80%. Poor effectiveness is defined as an effectiveness between 10 and 50% and zero effectiveness is defined as less than 10% effectiveness.

SMILES | effectiveness (percentage of control relative to untreated plants)
CCNC(=O)C(Cc1ncc(C(F)(F)F)cc1Cl)NC(=O)c1ccccc1 (stereo not drawn) [compound 304, N-{1-ethylcarbamoyl-2-[3-chloro-5-(trifluoromethyl)-2-pyridinyl]ethyl}-benzamide, reference compound] | poor (Poor effectiveness is defined as an effectiveness between 10 and 50%)
CNC(=O)C(Cc1ncc(C(F)(F)F)cc1Cl)NC(=O)c1ccccc1 (stereo not drawn) [compound 314, N-{1-methylcarbamoyl-2-[3-chloro-5-(trifluoromethyl)2-pyridinyl]ethyl}-benzamide, reference compound] | poor (Poor effectiveness is defined as an effectiveness between 10 and 50%)
CNC(=O)C(Cc1ncc(C(F)(F)F)cc1Cl)NC(=O)c1ccc(-c2ccccc2)cc1 (stereo not drawn) [compound 316, N-{1-methylcarbamoyl-2-[3-chloro-5-(trifluoromethyl)-2-pyridinyl]ethyl}-4-phenylbenzamide, reference compound] | poor (Poor effectiveness is defined as an effectiveness between 10 and 50%)
